Test results taken from PubChem BioAssay AID624297 (National Center for Advancing Translational Sciences (NCATS), 2012).
Among all 340,000 compounds or so, about 6,200 (1.8%) were called active. Inconclusive means that the source gave no clear call. Such entries were picked first, then a sample of the others. Calls come from the whole dose curve; as a rule, active = well fitted activation curve with a large enough effect; inconclusive = small, poorly fitted or top-dose-only effect; inactive = no such curve, though single readings can be large or run the other way. Where the call is inconclusive, the potency comes from a doubtful curve fit.

Assay: A quantitative high throughput screen for small molecules that induce DNA re-replication in SW480 colon adenocarcinoma cells. For re-replication activation: % of control where 0% means no effect. Note: nearly all actives have a fitted effect of over 55% in size.
Conditions: Hoechst DNA content imaging, 48 h; re-replication activation: at 46.1 µM (top of the series)
In short: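 Treated cells incubate 48 hr (37 C, 5% CO2), are stained 40 min with Hoechst, and nuclear fluorescence is enumerated; a rise in nuclei with high DNA signal marks re-replication.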
Potency is the fitted concentration of half-maximal effect.

SMILES	Potency	re-replication activation
Cn1c(=O)c2c(nc(N3CCCCCC3)n2Cc2cccc3ccccc23)n(C)c1=O	inactive	–
CCN1/C(=C/C=C/c2oc3ccc(-c4ccccc4)cc3[n+]2CC)Oc2ccc(-c3ccccc3)cc21	inconclusive: 23.1 µM [activator, single point]	–
COc1cccc(/C=N/NC(=O)c2c(C)nc3ccc(Br)cn23)c1O	active: 0.651 µM	–
Cc1cc(C)c(Cn2cnc3ccccc32)c(C)c1	inconclusive: 29.1 µM [activator, single point]	–
CN(C)C(CNC(=O)CSc1nc2sc3c(c2c(=O)n1C)CCC3)c1ccccc1 (stereo not given)	inconclusive: 0.731 µM [activator, full curve, poor fit]	–
CC(C)(C)NC(=O)Nc1ccc2nccnc2c1	inconclusive: 1.16 µM [activator, full curve, poor fit]	–
CO/N=C(/C(=O)N[C@@H]1C(=O)N2C(C(=O)O)=C(C[n+]3ccc(N)n3CCO)CS[C@H]12)c1csc(N)n1	inactive	–
CC(=O)c1ccc(NC(=O)NC2CC(=O)N(c3ccc4c(c3)OCCO4)C2)cc1 (stereo not given)	inactive	–
COCCN(CC1CCCN(C2Cc3ccccc3C2)C1)C(=O)c1ccc(C(C)=O)cc1 (stereo not given)	active: 0.316 µM	–
CCN(CC)CCOC(=O)c1ccc(NC(=O)CCCN2C(=O)/C(=C/c3cccs3)SC2=S)cc1	inconclusive: 20.6 µM [activator, single point]	–
CN(CC(=O)Nc1cc(Cl)cc(Cl)c1)Cc1cccs1	inconclusive: 3.66 µM [activator, single point]	–
CC1=C(C)CC(C(=O)NC2CCN(C(C)C)CC2)C(C(=O)O)C1 (stereo not given)	inactive	–
O=C(NC1CCCC1)C(c1ccc(Cl)cc1)N(Cc1ccc(F)cc1)C(=O)CCl (stereo not given)	inconclusive: 22.4 µM [activator, single point]	–
COC(=O)c1ccccc1NC(=O)C1CCN(c2ncnc3c2nc2n3CCCCC2)CC1	inactive	–
CC(=O)Oc1c(I)cc(I)cc1C(=O)Nc1ccc(Cl)cc1	inconclusive: 29.1 µM [activator, partial curve, poor fit]	–
CCOc1ccccc1NC(=O)Cn1c(=O)oc2ccccc21	inactive	–
CCN1CCCC1CNC(=O)c1ccc2c(c1)NC(=O)/C(=C\c1ccc(C)cc1)S2 (stereo not given)	inconclusive: 29.1 µM [activator, single point]	–
CC(C#N)Sc1ccc(S(=O)(=O)N2CCCCC2)cn1 (stereo not given)	inconclusive: 2.31 µM [activator, full curve, poor fit]	–
COc1ccc(C2=NOC(C)(c3nnc(-c4ccncc4)o3)C2)cc1 (stereo not given)	inactive	–
COc1cc(OC)c(NS(=O)(=O)c2ccc3c(c2)NC(=O)CO3)cc1Cl	inactive	–
CCOc1ccc(N/C(N)=N/c2nc(CSc3nnc(C)s3)cc(=O)[nH]2)cc1	inconclusive: 1.16 µM [activator, partial curve, poor fit]	–
CCC(NC(=O)C1CCCC1)c1ccccc1 (stereo not given)	inactive	–
Cc1cc(C)n2ncc(C(=O)NCc3ccccc3)c2n1	–	inactive: 0.212% [at 9.22 µM]

SMILES	Potency	re-replication activation
COC(=O)Nc1nc2ccc(SC(C)C)cc2[nH]1	active: 0.82 µM	–
S=C(c1cn(CCOc2cccc3ccccc23)c2ccccc12)N1CCCC1	inconclusive: 29.1 µM [activator, single point]	–
Cc1noc(C)c1C(=O)N(CC(C)C)c1nc2ccccc2s1	inconclusive: 16.4 µM [activator, single point]	–
COc1ccccc1CN1C(=O)[C@@H]2Cc3c([nH]c4ccccc34)C(C)(C)N2C1=O	inactive	–
COc1cc(OC)cc(C(=O)NNC(=O)c2ccccn2)c1	inconclusive: 6.51 µM [activator, partial curve, poor fit]	–
Cc1ccccc1NC(=O)C1Cc2ccccc2C(=O)O1 (stereo not given)	inactive	–
CCOC(=O)C1CCCN(c2nc3ccccc3nc2C(C#N)C(=O)OC(C)C)C1 (stereo not given)	inconclusive: 20.6 µM [activator, single point]	–
COc1cccc(CN(C(=O)Cc2c[nH]c3ccccc23)C(C(=O)NC2CCCCC2)c2ccc(C)o2)c1 (stereo not given)	inconclusive: 8.2 µM [activator, partial curve, poor fit]	–
COc1cc(C(=O)NCCC(=O)NC(C)CCc2ccccc2)cc(OC)c1OC (stereo not given)	inactive	–
COc1ccccc1C1/C(=C(/O)c2ccccc2)C(=O)C(=O)N1CC(C)O (stereo not given)	–	inactive: -2.56% [at 9.22 µM]
CCCn1c2ccc(C)cc2c2nnc(SCCN3CCOCC3)nc21	inactive	–
CC(C)(C)C1CCc2c(sc(NC(=O)c3cccs3)c2C(N)=O)C1 (stereo not given)	inconclusive: 15.8 µM [activator, single point]	–
CCCCn1c(N)c(N(CC(C)C)C(=O)CCCc2cccs2)c(=O)[nH]c1=O	inconclusive: 29.1 µM [activator, single point]	–
Oc1cccc(/C=N/NC(=S)Nc2cccnc2)c1O	inconclusive: 8.2 µM [activator, partial curve, poor fit]	–
Cc1cc2c(Nc3ccc(O)cc3)ncnc2s1	inconclusive: 23.1 µM [activator, partial curve, poor fit]	–
O=C(NCCO[N+](=O)[O-])c1cccnc1	inconclusive: 0.116 µM [activator, single point]	–
CCc1nonc1NC(=O)COc1ccc(Cl)c(C)c1	inconclusive: 0.92 µM [activator, full curve, poor fit]	–
C#CCN1C=CC(=O)[C@@H](OC(=O)Nc2ccc(OC)cc2)[C@H]1c1ccccc1Br	inconclusive: 1.84 µM [activator, partial curve]	–
O=C(c1cc(Cl)nc2ccccc12)N1CCCCC1	inactive	–
CCN(C)c1ccc(/C=N\n2nnnc2N)cc1	inconclusive: 4.11 µM [activator, single point]	–
CC(=O)Nc1cccc(NC(=S)Nc2ccc(F)c(Cl)c2)c1	inconclusive: 20.6 µM [activator, single point]	–
CN(C)C/C(Cl)=C(\Cl)c1ccccc1	inconclusive: 16.4 µM [activator, partial curve, poor fit]	–

Some of the entries so far, with bars between the fields.
SMILES | Potency | re-replication activation
COC(=O)Nc1nc2ccc(SC(C)C)cc2[nH]1 | active: 0.82 µM | –
S=C(c1cn(CCOc2cccc3ccccc23)c2ccccc12)N1CCCC1 | inconclusive: 29.1 µM [activator, single point] | –
Cc1ccccc1NC(=O)C1Cc2ccccc2C(=O)O1 (stereo not given) | inactive | –
COc1cccc(CN(C(=O)Cc2c[nH]c3ccccc23)C(C(=O)NC2CCCCC2)c2ccc(C)o2)c1 (stereo not given) | inconclusive: 8.2 µM [activator, partial curve, poor fit] | –
COc1cc(C(=O)NCCC(=O)NC(C)CCc2ccccc2)cc(OC)c1OC (stereo not given) | inactive | –
CCCn1c2ccc(C)cc2c2nnc(SCCN3CCOCC3)nc21 | inactive | –
CC(C)(C)C1CCc2c(sc(NC(=O)c3cccs3)c2C(N)=O)C1 (stereo not given) | inconclusive: 15.8 µM [activator, single point] | –
CCCCn1c(N)c(N(CC(C)C)C(=O)CCCc2cccs2)c(=O)[nH]c1=O | inconclusive: 29.1 µM [activator, single point] | –
Oc1cccc(/C=N/NC(=S)Nc2cccnc2)c1O | inconclusive: 8.2 µM [activator, partial curve, poor fit] | –
O=C(c1cc(Cl)nc2ccccc12)N1CCCCC1 | inactive | –
CCN(C)c1ccc(/C=N\n2nnnc2N)cc1 | inconclusive: 4.11 µM [activator, single point] | –
CC(=O)Nc1cccc(NC(=S)Nc2ccc(F)c(Cl)c2)c1 | inconclusive: 20.6 µM [activator, single point] | –
